These results are taken from publication PMC10403741.

Protein sequences, listed by entry. Tags and fused reporters are not part of them.
UniProt Q04206: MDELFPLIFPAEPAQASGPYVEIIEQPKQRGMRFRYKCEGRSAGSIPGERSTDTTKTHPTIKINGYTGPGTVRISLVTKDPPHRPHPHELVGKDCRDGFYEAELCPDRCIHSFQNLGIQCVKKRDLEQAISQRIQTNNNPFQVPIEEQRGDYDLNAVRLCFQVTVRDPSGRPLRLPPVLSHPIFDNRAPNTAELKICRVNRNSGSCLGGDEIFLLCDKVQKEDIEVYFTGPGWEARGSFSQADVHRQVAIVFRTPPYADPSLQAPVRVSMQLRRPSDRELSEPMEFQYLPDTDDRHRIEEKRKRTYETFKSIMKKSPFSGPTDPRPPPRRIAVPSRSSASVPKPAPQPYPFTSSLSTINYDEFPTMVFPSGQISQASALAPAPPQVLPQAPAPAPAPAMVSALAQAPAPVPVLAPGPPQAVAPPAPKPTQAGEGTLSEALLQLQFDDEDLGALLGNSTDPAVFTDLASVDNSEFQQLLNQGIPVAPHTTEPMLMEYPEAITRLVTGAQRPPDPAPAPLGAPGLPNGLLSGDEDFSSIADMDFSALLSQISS

No constants are given. Whether binding was seen depends on the method and setting. In cells and extracts the contact can be indirect. Some binding calls cover weakened binding; strength is not graded here.

The assay concerns the target NF-κB/RelA (human (endogenous in hSAECs)) (UniProt Q04206). Description: co-IP; nuclear proteins of RSV-infected hSAECs; NLB buffer (50 mM Tris-HCl pH 7.5, 100 mM NaCl, 50 mM KCl, 3 mM MgCl2, 10% glycerol, 0.1% Tween-20); Benzonase-digested; IP with anti-NF-κB/RelA and blot with anti-NEIL2, and the reverse; beads without antibody as negative control.

B1: Nei-like DNA glycosylase 2 (protein, UniProt Q969S2 1-332)
chain: MPEGPLVRKFHHLVSPFVGQQVVKTGGSSKKLQPASLQSLWLQDTQVHGKKLFLRFDLDEEMGPPGSSPTPEPPQKEVQKEGAADPKQVGEPSGQKTLDGSSRSAELVPQGEDDSEYLERDAPAGDAGRWLRVSFGLFGSVWVNDFSRAKKANKRGDWRDPSPRLVLHFGGGGFLAFYNCQLSWSSSPVVTPTCDILSEKFHRGQALEALGQAQPVCYTLLDQRYFSGLGNIIKNEALYRAGIHPLSLGSVLSASRREVLVDHVVEFSTAWLQGKFQGRPQHTQVYQKEQCPAGHQVMKEAFGPEDGLQRLTWWCPQCQPQLSEEPEQCQFS
As to B1, the binding entry is recorded as “binds”.
